Experimental data: PubChem BioAssay AID1224830 (NIAID, 2016)
Here is an unselected part of about 18,000 reagents. Over the whole deposit, about 2,900 (16%) got an active call. 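Calls are made per well; low scores hint the gene aids the LPS response, high scores that it dampens it.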 A number with no mark means an inactive call. Reagents against one gene are numbered here. Repeated entries: four replicate wells of each siRNA pool. Reagent sequences are not shown.

Assay: 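Genes whose knock-down alters the TNF-alpha reporter response to LPS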 (primary screen)
System: human THP-1 monocytic leukaemia cells, TNF dual-luciferase reporter clone, PMA-differentiated to macrophage-like cells
Reagents: siRNA pool against human genes, 50 nM
Timing: LPS for 4 h, given about 3 days after siRNA transfection
Treatment: bacterial LPS (TLR4 ligand), 10 ng/ml
Detection: 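TNF firefly reporter luminescence divided by renilla, normalised to the plate median, then turned into a robust z-score for each replicate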
Reading the numbers: TNF reporter robust z-score: higher = stronger TNF reporter response to LPS
Call rule: 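Each well counts as active if its z-score is over 2.8 or under -1.5; controls are left without a call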

Gene | reagent | TNF reporter robust z-score
AFF3 | 1 | 0.16
AFF3 | 1 | 0.06
AFF3 | 1 | -0.52
AFF3 | 1 | 0.38
ZNF286A | 1 | -1.32
ZNF286A | 1 | -1.22
ZNF286A | 1 | -1.48
ZNF286A | 1 | -0.82
PTPRH | 1 | 0.36
PTPRH | 1 | 0.42
PTPRH | 1 | -0.5
PTPRH | 1 | 1.14
RPP40 | 1 | -1.66 (active)
RPP40 | 1 | -0.84
RPP40 | 1 | -0.95
RPP40 | 1 | -0.47
GOPC | 1 | 3.64 (active)
GOPC | 1 | 0.01
GOPC | 1 | -0.79
GOPC | 1 | -0.31
MARCHF10 | 1 | 0.14
MARCHF10 | 1 | 0.05
MARCHF10 | 1 | 0.59
MARCHF10 | 1 | 0.09
SMPD3 | 1 | -0.03
SMPD3 | 1 | 0.43
SMPD3 | 1 | 0.41
SMPD3 | 1 | 1.01
SNRNP40 | 1 | -0.02
SNRNP40 | 1 | 0.85
SNRNP40 | 1 | -0.73
SNRNP40 | 1 | 1.03
TCP10L | 1 | -0.76
TCP10L | 1 | -0.06
TCP10L | 1 | 0.2
TCP10L | 1 | -0.44

Reagents above called active (2):
Gene | reagent | TNF reporter robust z-score
RPP40 | 1 | -1.66 (active)
GOPC | 1 | 3.64 (active)

The listing continues:
Gene | reagent | TNF reporter robust z-score
KRTDAP | 1 | -1.13
KRTDAP | 1 | -1.18
KRTDAP | 1 | -1.45
KRTDAP | 1 | -1.47
CDH16 | 1 | -1.04
CDH16 | 1 | -0.96
CDH16 | 1 | -0.83
CDH16 | 1 | -0.67
CCDC89 | 1 | -0.09
CCDC89 | 1 | 0.83
CCDC89 | 1 | 0.31
CCDC89 | 1 | 1.08
RBP7 | 1 | -0.22
RBP7 | 1 | -0.81
RBP7 | 1 | -0.89
RBP7 | 1 | -0.07
ALG13 | 1 | 1.93
ALG13 | 1 | 1.22
ALG13 | 1 | 2.3
ALG13 | 1 | 2.52
ALG13 | 2 | 1.97
ALG13 | 2 | 2.36
ALG13 | 2 | 0.44
ALG13 | 2 | 1.23
RFESD | 1 | 2.71
RFESD | 1 | 1.11
RFESD | 1 | 3.98 (active)
RFESD | 1 | 1.86
STEAP2 | 1 | 1.09
STEAP2 | 1 | 1.69
STEAP2 | 1 | 1.32
STEAP2 | 1 | 1.43
BSG | 1 | -0.71
BSG | 1 | 0.21
BSG | 1 | -0.33
BSG | 1 | 0.53
SPTA1 | 1 | -0.04
SPTA1 | 1 | -0.11
SPTA1 | 1 | -0.46
SPTA1 | 1 | 0.09
